Source: article PMC3578829, “A Small Molecule (Pluripotin) as a Tool for Studying Cancer Stem Cell Biology: Proof of Concept” (PLoS ONE, 2013)

The chains behind the UniProt entries cited, without tags or fusion partners.
UniProt P31749, whole entry: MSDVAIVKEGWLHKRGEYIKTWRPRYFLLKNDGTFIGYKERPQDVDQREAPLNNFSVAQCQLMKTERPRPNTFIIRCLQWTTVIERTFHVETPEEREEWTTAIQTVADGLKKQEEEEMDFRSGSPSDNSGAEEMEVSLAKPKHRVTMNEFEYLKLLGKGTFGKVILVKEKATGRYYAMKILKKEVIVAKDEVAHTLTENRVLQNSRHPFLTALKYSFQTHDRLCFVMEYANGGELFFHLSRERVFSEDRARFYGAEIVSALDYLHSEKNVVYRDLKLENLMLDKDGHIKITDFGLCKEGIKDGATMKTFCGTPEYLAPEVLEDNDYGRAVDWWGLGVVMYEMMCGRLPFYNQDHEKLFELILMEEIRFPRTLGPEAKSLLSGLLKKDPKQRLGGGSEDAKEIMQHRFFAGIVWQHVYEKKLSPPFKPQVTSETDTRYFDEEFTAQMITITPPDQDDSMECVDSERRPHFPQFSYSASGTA

Assays:
Experiment in all cases: Miniaturized 33P-based kinase screening assay
Details in all cases: max 10 µM, 3-fold serial dilution, n = 2
Akt1 = Akt1 (Homo sapiens, UniProt P31749)
Method: (§1) The RSK2 in vitro kinase inhibition assay utilized was a modification of protocols established by Nguyen et al.. Additional protocols that confirmed the results depicted in Figure 4 and evaluated kinase inhibitory activity in a random selection of protein kinases (Table 3) were conducted at Reaction Biology Corporation (Malvern, PA). This was a miniaturized ^33P-based screening assay.

PKA = PKA (Homo sapiens, UniProt P17612)
Method: as §1

PKC = tested on: PKC
Method: as §1

Measured: IC50

Cc1cc(Nc2ncc3c(n2)N(C)C(=O)N(c2cc(NC(=O)c4cccc(C(F)(F)F)c4)ccc2C)C3)n(C)n1 [SC-1]
No inhibitory effect and > 10 µM: Akt1 | PKA | PKC

Certain results were filed several times, with different values. Only these are listed. An entry can have further records. Values given together differ for a reason that is not stated; they may come from other doses, times, organisms or constructs than stated.
